Measurements published in publication PMC4231747.

Amino acid sequences for entries named in this document (tags omitted).
UniProt P40160: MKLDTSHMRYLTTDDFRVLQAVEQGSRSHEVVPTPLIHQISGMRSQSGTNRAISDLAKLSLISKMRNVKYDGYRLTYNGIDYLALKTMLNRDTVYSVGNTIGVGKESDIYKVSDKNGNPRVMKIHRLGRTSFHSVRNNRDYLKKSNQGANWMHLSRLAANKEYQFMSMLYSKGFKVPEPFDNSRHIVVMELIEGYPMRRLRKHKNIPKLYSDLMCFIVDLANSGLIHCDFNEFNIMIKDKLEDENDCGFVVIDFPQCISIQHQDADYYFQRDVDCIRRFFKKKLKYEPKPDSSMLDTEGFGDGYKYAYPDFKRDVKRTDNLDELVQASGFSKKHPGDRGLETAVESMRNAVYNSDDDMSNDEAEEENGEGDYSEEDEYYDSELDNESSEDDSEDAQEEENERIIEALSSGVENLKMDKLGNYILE

T1: Rio1-TAP (S. cerevisiae) (UniProt Q12196)
T1 sequence: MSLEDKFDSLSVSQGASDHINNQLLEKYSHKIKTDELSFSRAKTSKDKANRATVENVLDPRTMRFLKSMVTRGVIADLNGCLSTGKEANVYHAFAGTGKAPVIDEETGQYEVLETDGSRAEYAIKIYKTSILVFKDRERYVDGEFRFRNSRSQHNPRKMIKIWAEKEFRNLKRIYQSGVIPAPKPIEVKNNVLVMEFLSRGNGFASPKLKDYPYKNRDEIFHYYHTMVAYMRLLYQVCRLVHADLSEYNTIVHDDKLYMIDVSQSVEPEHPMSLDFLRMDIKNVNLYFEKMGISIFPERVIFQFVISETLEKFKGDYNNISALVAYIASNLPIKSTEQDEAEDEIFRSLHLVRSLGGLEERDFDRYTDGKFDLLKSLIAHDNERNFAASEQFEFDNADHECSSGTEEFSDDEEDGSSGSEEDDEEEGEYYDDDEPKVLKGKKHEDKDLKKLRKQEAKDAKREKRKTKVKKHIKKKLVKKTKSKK

T2: Nob1-HTP (S. cerevisiae) (UniProt Q08444)
T2 sequence: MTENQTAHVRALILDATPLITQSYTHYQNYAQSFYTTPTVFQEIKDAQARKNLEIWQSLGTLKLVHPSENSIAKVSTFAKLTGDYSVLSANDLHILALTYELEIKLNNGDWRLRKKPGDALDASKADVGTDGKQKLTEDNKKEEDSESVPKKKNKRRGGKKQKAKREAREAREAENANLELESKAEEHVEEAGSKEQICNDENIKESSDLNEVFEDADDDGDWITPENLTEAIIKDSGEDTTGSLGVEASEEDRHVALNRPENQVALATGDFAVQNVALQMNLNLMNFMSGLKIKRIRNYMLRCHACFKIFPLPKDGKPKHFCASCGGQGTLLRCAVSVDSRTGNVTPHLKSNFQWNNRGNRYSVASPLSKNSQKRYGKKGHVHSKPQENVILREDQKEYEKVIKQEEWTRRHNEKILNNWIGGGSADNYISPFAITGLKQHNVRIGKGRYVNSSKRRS

T3: Pno1-TAP (S. cerevisiae) (UniProt Q99216)
T3 sequence: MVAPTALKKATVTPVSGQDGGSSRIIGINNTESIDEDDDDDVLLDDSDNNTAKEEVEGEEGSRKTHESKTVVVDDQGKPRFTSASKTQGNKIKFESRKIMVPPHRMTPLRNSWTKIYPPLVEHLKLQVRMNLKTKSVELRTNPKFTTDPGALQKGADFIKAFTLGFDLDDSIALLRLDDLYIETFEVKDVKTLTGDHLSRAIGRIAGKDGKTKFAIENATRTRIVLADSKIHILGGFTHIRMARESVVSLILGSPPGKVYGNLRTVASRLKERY

T4: Nob1-HTP (S. cerevisiae), Q08444
T4 chain: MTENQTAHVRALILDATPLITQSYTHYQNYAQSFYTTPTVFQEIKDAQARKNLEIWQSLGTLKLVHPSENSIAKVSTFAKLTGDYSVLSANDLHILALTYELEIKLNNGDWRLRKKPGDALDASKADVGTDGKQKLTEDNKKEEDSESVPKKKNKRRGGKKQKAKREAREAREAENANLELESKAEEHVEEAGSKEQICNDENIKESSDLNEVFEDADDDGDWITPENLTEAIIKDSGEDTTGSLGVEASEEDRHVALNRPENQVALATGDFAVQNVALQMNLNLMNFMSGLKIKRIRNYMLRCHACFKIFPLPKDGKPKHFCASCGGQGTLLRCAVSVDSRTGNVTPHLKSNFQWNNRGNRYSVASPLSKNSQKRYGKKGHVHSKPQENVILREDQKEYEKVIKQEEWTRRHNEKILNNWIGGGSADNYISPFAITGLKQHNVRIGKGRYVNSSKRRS

T5: Pno1-TAP (S. cerevisiae), Q99216
T5 chain: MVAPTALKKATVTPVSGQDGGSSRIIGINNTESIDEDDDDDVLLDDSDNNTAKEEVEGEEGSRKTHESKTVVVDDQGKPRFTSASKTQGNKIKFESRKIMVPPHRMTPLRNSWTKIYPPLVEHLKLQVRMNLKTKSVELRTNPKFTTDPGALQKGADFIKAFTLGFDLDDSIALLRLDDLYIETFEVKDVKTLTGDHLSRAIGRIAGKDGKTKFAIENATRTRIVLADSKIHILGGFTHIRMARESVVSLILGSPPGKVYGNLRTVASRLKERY


Legend:
Assay in all cases: affinity purification with mass spectrometry; pre-ribosomal particles purified from yeast by the tagged bait (Nob1-HTP, Pno1-TAP, Rio2-TAP, Rio1-TAP), fractionated on a Superose 6 gel filtration column; elution fractions 1-5 digested and analysed by LC-MS/MS
Rio2-TAP (S. cerevisiae) = Rio2-TAP (S. cerevisiae) (UniProt P40160)
Rio1-TAP (S. cerevisiae) = target: T1, Rio1-TAP (S. cerevisiae)
Nob1-HTP (S. cerevisiae) = target: T2, Nob1-HTP (S. cerevisiae)
Pno1-TAP (S. cerevisiae) = target: T3, Pno1-TAP (S. cerevisiae)
[1] = target: T4, Nob1-HTP (S. cerevisiae), Q08444; details: remark: other sources report otherwise
[2] = target: T5, Pno1-TAP (S. cerevisiae), Q99216; details: remark: other sources report otherwise

binding (Rio2-TAP (S. cerevisiae))	binding (Rio1-TAP (S. cerevisiae))	binding (Nob1-HTP (S. cerevisiae))	binding (Pno1-TAP (S. cerevisiae))	binding [1]	binding [2]	Binder
binds	binds	binds	binds	–	–	40S subunit ribosomal protein Rps4A (protein, UniProt P0CX35 1-261) MARGPKKHLKRLAAPHHWLLDKLSGCYAPRPSAGPHKLRESLPLIVFLRNRLKYALNGREVKAILMQRHVKVDGKVRTDTTYPAGFMDVITLDATNENFRLVYDVKGRFAVHRITDEEASYKLGKVKKVQLGKKGVPYVVTHDGRTIRYPDPNIKVNDTVKIDLASGKITDFIKFDAGKLVYVTGGRNLGRIGTIVHKERHDGGFDLVHIKDSLDNTFVTRLNNVFVIGEQGKPYISLPKGKGIKLSIAEERDRRRAQQGL
–	–	–	–	binds	binds	Rio1, Q12196 1-484 (enzyme) MSLEDKFDSLSVSQGASDHINNQLLEKYSHKIKTDELSFSRAKTSKDKANRATVENVLDPRTMRFLKSMVTRGVIADLNGCLSTGKEANVYHAFAGTGKAPVIDEETGQYEVLETDGSRAEYAIKIYKTSILVFKDRERYVDGEFRFRNSRSQHNPRKMIKIWAEKEFRNLKRIYQSGVIPAPKPIEVKNNVLVMEFLSRGNGFASPKLKDYPYKNRDEIFHYYHTMVAYMRLLYQVCRLVHADLSEYNTIVHDDKLYMIDVSQSVEPEHPMSLDFLRMDIKNVNLYFEKMGISIFPERVIFQFVISETLEKFKGDYNNISALVAYIASNLPIKSTEQDEAEDEIFRSLHLVRSLGGLEERDFDRYTDGKFDLLKSLIAHDNERNFAASEQFEFDNADHECSSGTEEFSDDEEDGSSGSEEDDEEEGEYYDDDEPKVLKGKKHEDKDLKKLRKQEAKDAKREKRKTKVKKHIKKKLVKKTKSKK

No constants are given. Whether binding was seen depends on the method and setting. In cells and extracts the contact can be indirect. These calls come from enrichment with a bait or labelling near it, and not all partners need be listed.
